Source: PubChem BioAssay AID504804 (Drosophila RNAi Screening Center, 2011)

Purpose: 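Fly genes whose loss lessens doxorubicin-driven cell death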 (primary screen)
System: Drosophila Kc cells
Knock-down reagent: long dsRNA against Drosophila genes, 0.5 µg dsRNA per well
Time to read-out: 96 h (48 h knock-down, then 48 h drug)
Conditions: doxorubicin 5 µg/ml for 48 h, added 48 h after dsRNA
Measured: 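Viability measured as cellular ATP by luminescence after 48 h knock-down then 48 h doxorubicin at 5 µg/ml; unnormalised plate counts for each replicate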
Scale: raw ATP luminescence: higher = more viable cells, protection from doxorubicin
Rule for the call: 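Active when both duplicate wells lie at least 2 SD above the plate mean and protection is confirmed by rescreening and independent dsRNAs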
In all, the deposit lists about 19,000 reagents; shown is a random part of those with a known target gene and a result. Of all reagents, 47 (0.25%) are marked active. 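Signals are raw, not normalised; exact z-scores behind calls not deposited; actives needed confirmation, so some wells reaching 2 SD are inactive.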 Reagents against one gene are numbered here. Names joined by + are all predicted targets of the reagent.

gene	reagent	raw ATP luminescence, replicate 1	raw ATP luminescence, replicate 2	activity call
cpo	1	2.40e5	2.28e5	inactive
CG14285	1	51790	43150	inactive
cry	1	47990	53330	inactive
CG14286	1	43220	47840	inactive
senju	1	26937	38257	inactive
RasGAP1	1	76463	73293	inactive
dmrt93B	1	66200	59030	inactive
Rtnl1	1	2.83e5	2.91e5	inactive
Rtnl1	2	94357	67000	inactive
Rtnl1	3	1.05e5	69380	inactive
CG33301	1	42983	54247	inactive
CG2182	1	73450	33067	inactive
Neurl4	1	23193	24930	inactive
nmd	1	88043	76323	inactive
PPO2	1	62683	48580	inactive
CG6621	1	53343	24187	inactive
Ccp84Aa	1	68930	70613	inactive
CG14864	1	81770	72660	inactive
CG10492	1	31733	31907	inactive
CycA	1	96947	1.04e5	inactive
CycA	2	41570	36283	inactive
CG4597	1	74873	82937	inactive
Kif19A	1	1.66e5	1.78e5	inactive
CG5902	1	50777	50030	inactive
Nhe1	1	90283	84227	inactive
Osi15	1	76200	50280	inactive
Fkbp39	1	38130	21923	inactive
CG7011 + Prp31	1	23753	21087	inactive
Alr	1	2.01e5	2.60e5	inactive
SoxN	1	43027	65897	inactive
stac	1	2.30e5	2.10e5	inactive
stac	2	60360	50970	inactive
OtopLb	1	97403	68950	inactive
Polr3H	1	68300	52070	inactive
sNPF-R	1	69840	57793	inactive
CG1835	1	2.94e5	3.07e5	inactive
CG12213	1	93757	33713	inactive
RIC-3	1	75653	52690	inactive
RIC-3	2	67913	57080	inactive
Snoo	1	3.03e5	3.10e5	inactive
Snoo	2	1.31e5	81900	inactive
Snoo	3	54987	83787	inactive
RpL36	1	28380	27350	inactive
Iyd	1	99993	93250	inactive
Iyd	2	99857	1.51e5	inactive
CG5726	1	38280	51883	inactive
Orct	1	35823	37037	inactive
CG2017	1	62577	20190	inactive
CG14435	1	17760	26740	inactive
elB	1	3.22e5	3.00e5	inactive
elB	2	47090	66507	inactive
CG13471	1	62370	50173	inactive
lectin-33A	1	40867	87097	inactive
CG15022	1	71267	77987	inactive
Alp11	1	3.80e5	3.04e5	inactive
CG12682	1	56260	50740	inactive
CG6974	1	62360	75370	inactive
Pldn	1	70273	68487	inactive
Rev1	1	67227	62603	inactive
Lim1	1	45820	52470	inactive
CG17267	1	64370	80450	inactive
CG14691	1	60783	77137	inactive
Atu	1	61653	29340	inactive
NTPase	1	1.34e5	77850	inactive
CG13239	1	64330	64077	inactive
CG33796	1	1.09e5	83177	inactive
CG12065	1	54430	57350	inactive
CG3566	1	49170	53990	inactive
CG15548	1	48090	39000	inactive
qsm	1	1.27e5	1.27e5	inactive
sff	1	40320	34220	inactive
CG42245 + MEP-1	1	1.39e5	1.61e5	inactive
CG42245 + MEP-1	2	71833	77670	inactive
ihog	1	1.04e5	61597	inactive
Fur1	1	2.54e5	2.46e5	inactive
CG31806	1	73173	70487	inactive
Srp19	1	66973	81303	inactive
CG31792	1	54477	63303	inactive
CG10674	1	68883	86783	inactive
CG7747	1	60730	55877	inactive
Pex6 + Hao	1	69943	67997	inactive
Pex6 + Hao	2	39407	92763	inactive
RpL37-1	1	3.04e5	3.35e5	inactive
E(spl)malpha-BFM	1	58810	63330	inactive
